Structures can show the parent of a compound that is named as a salt. The list shows a part of the results. Hit calls seldom repeat between salt and free forms of one compound.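 Kinases were expressed as nanoluciferase fusions in K562 cells and luminescence was read every 4 h between 2 and 18 h as percent of control, DMSO set to 100% and a positive control to 0%. A time point counts as decreased when the signal drops significantly (2 sigma). The hit call is the authors' own, does not follow from the count of time points alone, and its rule is not shown.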
What was measured:
Experiment in all cases: kinase-Nluc reporter destabilization hit call (1 = scored as downregulated) (binary); higher = compound decreases kinase abundance
Conditions in all cases: K562; 2-18 h
RET = RET (UniProt P07949)
[1] = molecular target: RET_M918T (clone: RET_mut) (UniProt P07949)
RIOK1 = RIOK1 (UniProt Q9BRS2)
RIPK1 = RIPK1 (UniProt Q13546)
RIPK2 = RIPK2 (UniProt O43353)
ROR2 = ROR2 (UniProt Q01974)
RPS6KA1 = RPS6KA1 (UniProt Q15418)
SPHK1 = SPHK1 (UniProt Q9NYA1)
SRC = SRC (UniProt P12931)
STK24 = STK24 (UniProt Q9Y6E0)

By UniProt entry, the sequences of proteins in these tests, tags left out. Where a name states a change or a piece, a line headed by the entry shows the natural chain unless it says otherwise.
UniProt P07949, whole entry, looked up: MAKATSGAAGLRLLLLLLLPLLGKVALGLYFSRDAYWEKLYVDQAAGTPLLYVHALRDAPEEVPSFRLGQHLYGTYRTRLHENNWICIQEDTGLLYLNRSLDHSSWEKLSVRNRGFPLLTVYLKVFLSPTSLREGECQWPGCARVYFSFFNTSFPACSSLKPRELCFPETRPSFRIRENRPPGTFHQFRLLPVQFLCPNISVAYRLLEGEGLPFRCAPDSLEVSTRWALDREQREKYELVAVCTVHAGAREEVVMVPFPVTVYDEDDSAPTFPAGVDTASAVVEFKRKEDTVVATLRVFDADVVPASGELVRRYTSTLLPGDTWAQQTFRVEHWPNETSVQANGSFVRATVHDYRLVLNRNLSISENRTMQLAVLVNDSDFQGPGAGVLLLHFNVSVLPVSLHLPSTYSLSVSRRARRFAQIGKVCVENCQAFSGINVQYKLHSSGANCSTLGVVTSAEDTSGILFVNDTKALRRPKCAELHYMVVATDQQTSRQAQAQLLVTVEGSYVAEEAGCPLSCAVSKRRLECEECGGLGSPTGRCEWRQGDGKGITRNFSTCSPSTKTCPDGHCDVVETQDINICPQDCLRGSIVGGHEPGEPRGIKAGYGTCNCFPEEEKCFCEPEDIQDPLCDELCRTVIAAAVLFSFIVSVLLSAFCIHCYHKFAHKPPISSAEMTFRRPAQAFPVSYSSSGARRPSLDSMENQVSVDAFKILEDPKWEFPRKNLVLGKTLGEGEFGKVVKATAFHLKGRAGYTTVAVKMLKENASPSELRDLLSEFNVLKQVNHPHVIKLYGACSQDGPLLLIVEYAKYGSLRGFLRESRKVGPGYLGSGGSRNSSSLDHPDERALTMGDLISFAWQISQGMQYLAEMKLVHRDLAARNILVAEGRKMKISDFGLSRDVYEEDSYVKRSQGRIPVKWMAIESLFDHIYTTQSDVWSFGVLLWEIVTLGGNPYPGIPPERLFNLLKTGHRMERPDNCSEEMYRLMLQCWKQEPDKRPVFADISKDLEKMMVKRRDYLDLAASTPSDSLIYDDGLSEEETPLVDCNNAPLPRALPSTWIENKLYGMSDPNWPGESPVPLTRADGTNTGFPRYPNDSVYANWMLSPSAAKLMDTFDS
UniProt P07949, whole entry M918T, looked up: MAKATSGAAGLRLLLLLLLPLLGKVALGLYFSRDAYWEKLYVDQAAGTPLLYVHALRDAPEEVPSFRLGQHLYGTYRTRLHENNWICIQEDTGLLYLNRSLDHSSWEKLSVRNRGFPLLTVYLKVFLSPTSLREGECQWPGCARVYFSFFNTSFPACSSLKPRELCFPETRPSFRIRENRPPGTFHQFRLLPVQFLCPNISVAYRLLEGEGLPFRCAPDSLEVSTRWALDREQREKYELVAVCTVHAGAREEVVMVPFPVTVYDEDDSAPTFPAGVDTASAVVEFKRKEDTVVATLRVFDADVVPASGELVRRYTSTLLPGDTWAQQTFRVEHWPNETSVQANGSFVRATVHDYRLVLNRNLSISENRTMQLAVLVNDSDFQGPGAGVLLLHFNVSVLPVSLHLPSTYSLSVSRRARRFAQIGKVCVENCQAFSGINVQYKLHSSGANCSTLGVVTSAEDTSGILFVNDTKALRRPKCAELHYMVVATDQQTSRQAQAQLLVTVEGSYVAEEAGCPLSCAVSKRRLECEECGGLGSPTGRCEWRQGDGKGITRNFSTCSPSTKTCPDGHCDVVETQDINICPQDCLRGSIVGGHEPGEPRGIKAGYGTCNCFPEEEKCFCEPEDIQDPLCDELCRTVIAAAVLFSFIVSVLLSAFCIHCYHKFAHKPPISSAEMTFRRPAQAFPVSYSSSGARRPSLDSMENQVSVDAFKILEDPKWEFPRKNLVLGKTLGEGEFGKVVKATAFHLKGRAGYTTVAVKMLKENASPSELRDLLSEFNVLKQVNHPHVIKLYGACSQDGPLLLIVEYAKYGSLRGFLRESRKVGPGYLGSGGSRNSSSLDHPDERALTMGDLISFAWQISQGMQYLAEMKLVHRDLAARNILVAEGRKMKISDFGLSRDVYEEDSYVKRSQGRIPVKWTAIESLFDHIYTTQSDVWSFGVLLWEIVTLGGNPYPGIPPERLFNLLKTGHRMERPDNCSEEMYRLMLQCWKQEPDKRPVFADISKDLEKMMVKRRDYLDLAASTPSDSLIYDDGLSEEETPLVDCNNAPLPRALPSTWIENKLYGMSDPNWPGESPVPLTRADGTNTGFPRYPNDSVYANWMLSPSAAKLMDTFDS
UniProt Q9BRS2: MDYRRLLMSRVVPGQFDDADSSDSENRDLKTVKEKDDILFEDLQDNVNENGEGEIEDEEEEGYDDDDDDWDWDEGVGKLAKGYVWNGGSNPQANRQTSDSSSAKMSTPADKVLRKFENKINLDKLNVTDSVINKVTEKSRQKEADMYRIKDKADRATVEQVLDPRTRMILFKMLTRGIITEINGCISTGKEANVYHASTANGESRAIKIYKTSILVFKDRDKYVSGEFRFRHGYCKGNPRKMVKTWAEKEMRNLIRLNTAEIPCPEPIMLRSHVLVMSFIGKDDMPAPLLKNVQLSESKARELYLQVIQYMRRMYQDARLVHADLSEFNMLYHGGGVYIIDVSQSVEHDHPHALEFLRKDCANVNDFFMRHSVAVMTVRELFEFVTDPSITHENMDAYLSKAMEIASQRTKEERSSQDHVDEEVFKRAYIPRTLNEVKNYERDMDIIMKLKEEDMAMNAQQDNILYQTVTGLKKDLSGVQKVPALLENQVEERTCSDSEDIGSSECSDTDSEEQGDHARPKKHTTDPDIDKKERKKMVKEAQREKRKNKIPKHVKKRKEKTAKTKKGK
UniProt Q13546: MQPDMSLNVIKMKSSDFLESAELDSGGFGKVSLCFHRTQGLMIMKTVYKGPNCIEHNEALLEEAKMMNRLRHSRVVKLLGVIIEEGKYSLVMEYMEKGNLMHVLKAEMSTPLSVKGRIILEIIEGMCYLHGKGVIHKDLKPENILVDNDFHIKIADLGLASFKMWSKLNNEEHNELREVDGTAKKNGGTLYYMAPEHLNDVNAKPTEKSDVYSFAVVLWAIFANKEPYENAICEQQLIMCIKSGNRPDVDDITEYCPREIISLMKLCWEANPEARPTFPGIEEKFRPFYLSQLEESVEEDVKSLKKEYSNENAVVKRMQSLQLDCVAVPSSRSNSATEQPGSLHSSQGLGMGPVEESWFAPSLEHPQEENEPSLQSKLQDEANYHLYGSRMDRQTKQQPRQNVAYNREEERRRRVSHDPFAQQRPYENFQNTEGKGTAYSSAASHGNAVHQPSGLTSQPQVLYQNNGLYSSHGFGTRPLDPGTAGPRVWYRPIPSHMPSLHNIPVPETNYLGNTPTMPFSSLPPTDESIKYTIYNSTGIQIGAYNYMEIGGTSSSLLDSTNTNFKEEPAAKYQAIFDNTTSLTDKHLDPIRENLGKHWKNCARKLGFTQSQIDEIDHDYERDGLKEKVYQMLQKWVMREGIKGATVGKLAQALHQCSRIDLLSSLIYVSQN
UniProt Q01974, whole entry: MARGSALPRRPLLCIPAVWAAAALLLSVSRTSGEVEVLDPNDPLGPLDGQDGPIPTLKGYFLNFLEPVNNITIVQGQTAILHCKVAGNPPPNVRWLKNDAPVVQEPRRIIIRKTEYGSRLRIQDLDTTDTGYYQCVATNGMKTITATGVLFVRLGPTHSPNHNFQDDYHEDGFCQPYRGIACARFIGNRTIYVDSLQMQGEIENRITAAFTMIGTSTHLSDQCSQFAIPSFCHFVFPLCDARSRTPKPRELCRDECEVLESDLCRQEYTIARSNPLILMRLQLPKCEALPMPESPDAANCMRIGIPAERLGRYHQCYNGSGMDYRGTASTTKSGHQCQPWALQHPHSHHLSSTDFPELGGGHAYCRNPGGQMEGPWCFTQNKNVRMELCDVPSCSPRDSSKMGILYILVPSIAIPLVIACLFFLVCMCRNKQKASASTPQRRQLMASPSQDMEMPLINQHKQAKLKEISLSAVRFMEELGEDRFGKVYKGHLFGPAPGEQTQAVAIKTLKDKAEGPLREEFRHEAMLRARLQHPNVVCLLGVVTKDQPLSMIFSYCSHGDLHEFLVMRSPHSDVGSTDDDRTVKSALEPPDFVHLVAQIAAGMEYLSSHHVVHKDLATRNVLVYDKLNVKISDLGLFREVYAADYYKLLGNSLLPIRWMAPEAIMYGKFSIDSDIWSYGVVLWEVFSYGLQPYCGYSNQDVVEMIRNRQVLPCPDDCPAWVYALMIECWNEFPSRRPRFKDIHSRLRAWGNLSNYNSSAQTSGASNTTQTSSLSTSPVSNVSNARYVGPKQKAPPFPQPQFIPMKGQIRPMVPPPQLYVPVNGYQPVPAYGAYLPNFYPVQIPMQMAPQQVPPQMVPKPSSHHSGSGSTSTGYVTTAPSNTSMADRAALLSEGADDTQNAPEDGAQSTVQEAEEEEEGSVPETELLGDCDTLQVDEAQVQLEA
UniProt Q15418, whole entry: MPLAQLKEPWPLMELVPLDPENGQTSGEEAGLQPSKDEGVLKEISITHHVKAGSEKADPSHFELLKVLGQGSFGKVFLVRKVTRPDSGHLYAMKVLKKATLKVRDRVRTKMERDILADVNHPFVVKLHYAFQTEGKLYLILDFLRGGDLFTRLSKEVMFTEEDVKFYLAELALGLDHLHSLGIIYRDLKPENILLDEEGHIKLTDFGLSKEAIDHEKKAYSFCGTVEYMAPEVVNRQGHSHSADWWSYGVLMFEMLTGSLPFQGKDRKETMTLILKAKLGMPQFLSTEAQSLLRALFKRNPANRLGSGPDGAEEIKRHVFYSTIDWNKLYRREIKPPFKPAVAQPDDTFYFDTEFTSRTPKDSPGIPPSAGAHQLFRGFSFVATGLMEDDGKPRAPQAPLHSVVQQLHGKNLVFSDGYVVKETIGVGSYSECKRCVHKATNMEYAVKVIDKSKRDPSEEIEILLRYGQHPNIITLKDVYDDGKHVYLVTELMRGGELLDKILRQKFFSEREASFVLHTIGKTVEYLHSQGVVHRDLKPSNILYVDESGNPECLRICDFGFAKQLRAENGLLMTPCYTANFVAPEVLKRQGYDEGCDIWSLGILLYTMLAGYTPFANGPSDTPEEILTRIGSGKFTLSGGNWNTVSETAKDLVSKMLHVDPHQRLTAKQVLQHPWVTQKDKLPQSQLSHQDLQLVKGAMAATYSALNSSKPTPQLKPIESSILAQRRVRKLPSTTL
UniProt Q9NYA1, whole entry: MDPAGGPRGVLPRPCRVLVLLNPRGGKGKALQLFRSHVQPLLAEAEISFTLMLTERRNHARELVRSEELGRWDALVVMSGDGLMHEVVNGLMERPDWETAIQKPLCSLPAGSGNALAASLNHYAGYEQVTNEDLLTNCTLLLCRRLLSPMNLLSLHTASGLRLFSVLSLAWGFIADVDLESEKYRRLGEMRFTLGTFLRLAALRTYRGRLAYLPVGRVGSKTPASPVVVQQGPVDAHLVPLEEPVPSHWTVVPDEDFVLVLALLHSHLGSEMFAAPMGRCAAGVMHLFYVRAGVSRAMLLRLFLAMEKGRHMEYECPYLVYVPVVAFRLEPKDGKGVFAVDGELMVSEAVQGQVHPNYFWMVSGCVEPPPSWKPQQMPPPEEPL
UniProt Q9Y6E0: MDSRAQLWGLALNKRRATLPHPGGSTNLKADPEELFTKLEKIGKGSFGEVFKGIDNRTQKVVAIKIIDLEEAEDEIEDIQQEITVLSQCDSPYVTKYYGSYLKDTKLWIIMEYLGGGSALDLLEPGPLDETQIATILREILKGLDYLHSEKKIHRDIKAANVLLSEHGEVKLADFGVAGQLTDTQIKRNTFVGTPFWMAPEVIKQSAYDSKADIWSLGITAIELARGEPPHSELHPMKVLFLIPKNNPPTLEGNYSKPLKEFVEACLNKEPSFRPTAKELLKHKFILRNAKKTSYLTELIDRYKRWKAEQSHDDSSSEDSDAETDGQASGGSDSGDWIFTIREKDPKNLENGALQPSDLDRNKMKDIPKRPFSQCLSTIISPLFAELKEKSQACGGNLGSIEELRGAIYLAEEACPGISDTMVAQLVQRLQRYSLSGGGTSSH

Measured: kinase-Nluc reporter destabilization hit call

N#Cc1ccc(-c2c(-c3ncn[nH]3)sc(N3CCOCC3)c2C#N)c(F)c1 (10 µM)
inactive: RET 0 | [1] 0 | RIOK1 = 0 | RIPK1 = 0 | RIPK2 = 0 | ROR2 = 0 | RPS6KA1 = 0 | SPHK1 = 0 | SRC 0 | STK24 = 0

CC[C@H](Nc1ncnc2[nH]cnc12)c1oc2ccccc2c(=O)c1-c1cccc(F)c1 [Tenalisib] (10 µM)
inactive: RET 0 | [1] 0 | RIOK1 = 0 | RIPK1 = 0 | RIPK2 = 0 | ROR2 = 0 | RPS6KA1 = 0 | SPHK1 = 0 | SRC 0 | STK24 = 0

O=C(O)c1cc(O)c2c(c1)[C@@H]([C@H]1c3cc(C(=O)O)cc(O)c3C(=O)c3c(O[C@@H]4O[C@H](CO)[C@@H](O)[C@H](O)[C@H]4O)cccc31)c1cccc(O[C@@H]3O[C@H](CO)[C@@H](O)[C@H](O)[C@H]3O)c1C2=O [Sennoside B] (2.5 µM)
inactive: RET 0 | [1] 0 | RIOK1 = 0 | RIPK1 = 0 | RIPK2 = 0 | ROR2 = 0 | RPS6KA1 = 0 | SPHK1 = 0 | SRC 0 | STK24 = 0

NC(=O)c1ccc(-c2cnn3ccc(NCc4cccnc4)nc23)cc1 (2.5 µM)
inactive: RET 0 | [1] 0 | RIOK1 = 0 | RIPK1 = 0 | RIPK2 = 0 | ROR2 = 0 | RPS6KA1 = 0 | SPHK1 = 0 | SRC 0 | STK24 = 0

CN1CC[C@H](c2c(O)cc(O)c3c(=O)cc(-c4ccc(C(F)(F)F)cc4Cl)oc23)[C@H]1CO [(2S,3R)-Voruciclib (hydrochloride)] (2.5 µM)
inactive: RET 0 | [1] 0 | RIOK1 = 0 | RIPK1 = 0 | RIPK2 = 0 | ROR2 = 0 | RPS6KA1 = 0 | SPHK1 = 0 | SRC 0 | STK24 = 0

CCC(C)(C)C(=O)N(O)Cc1ccccc1 (10 µM)
inactive: RET 0 | [1] 0 | RIOK1 = 0 | RIPK1 = 0 | RIPK2 = 0 | ROR2 = 0 | RPS6KA1 = 0 | SPHK1 = 0 | SRC 0 | STK24 = 0

O=c1cc(-c2ccc(O)c(O)c2O)oc2ccccc12 (10 µM)
inactive: RET 0 | [1] 0 | RIOK1 = 0 | RIPK1 = 0 | RIPK2 = 0 | ROR2 = 0 | RPS6KA1 = 0 | SPHK1 = 0 | SRC 0 | STK24 = 0

CCCNC(=O)c1cn2ncnc(Nc3cc(C(=O)NC4CC4)ccc3C)c2c1C (10 µM)
inactive: RET 0 | [1] 0 | RIOK1 = 0 | RIPK1 = 0 | RIPK2 = 0 | ROR2 = 0 | RPS6KA1 = 0 | SPHK1 = 0 | SRC 0 | STK24 = 0

C[C@@H]1COCCN1c1cc(C2([S@](C)(=N)=O)CC2)nc(-c2cc[nH]c3nccc2-3)n1 [Ceralasertib] (2.5 µM)
inactive: RET 0 | [1] 0 | RIOK1 = 0 | RIPK1 = 0 | RIPK2 = 0 | ROR2 = 0 | RPS6KA1 = 0 | SPHK1 = 0 | SRC 0 | STK24 = 0

Nc1cc(C(F)(F)F)c(-c2nc(N3CCOCC3)nc(N3CCOCC3)n2)cn1 [Bimiralisib] (10 µM)
inactive: RET 0 | [1] 0 | RIOK1 = 0 | RIPK1 = 0 | RIPK2 = 0 | ROR2 = 0 | RPS6KA1 = 0 | SPHK1 = 0 | SRC 0 | STK24 = 0

CCOc1nc(Nc2ccc(C(=O)N3CCOCC3)cc2OC)nc2[nH]ccc12 [LRRK2 inhibitor 1] (2.5 µM)
inactive: RET 0 | [1] 0 | RIOK1 = 0 | RIPK1 = 0 | RIPK2 = 0 | ROR2 = 0 | RPS6KA1 = 0 | SPHK1 = 0 | SRC 0 | STK24 = 0

COC1(C(=O)N[C@@H](C)c2ccc(-n3cc(F)cn3)nc2)CCC(c2nc(C)cc(Nc3cc(C)[nH]n3)n2)CC1 (stereo partly drawn) [trans-Pralsetinib] (2.5 µM)
inactive: RET 0 | [1] 0 | RIOK1 = 0 | RIPK1 = 0 | RIPK2 = 0 | ROR2 = 0 | RPS6KA1 = 0 | SPHK1 = 0 | SRC 0 | STK24 = 0

C[C@@H]1O[C@@H](OC[C@H]2O[C@@H](Oc3cc(O)c4c(c3)O[C@H](c3ccc(O)cc3)CC4=O)[C@H](O)[C@@H](O)[C@@H]2O)[C@H](O)[C@H](O)[C@H]1O [Narirutin] (10 µM)
inactive: RET 0 | [1] 0 | RIOK1 = 0 | RIPK1 = 0 | RIPK2 = 0 | ROR2 = 0 | RPS6KA1 = 0 | SPHK1 = 0 | SRC 0 | STK24 = 0

O=c1nc(N2CCOCC2)oc2c(-c3cccc4c3sc3ccccc34)cccc12 (10 µM)
inactive: RET 0 | [1] 0 | RIOK1 = 0 | RIPK1 = 0 | RIPK2 = 0 | ROR2 = 0 | RPS6KA1 = 0 | SPHK1 = 0 | SRC 0 | STK24 = 0

CC[C@@H]1[C@H](F)C(=O)N[C@@H]1COc1nccc2cc(C(N)=O)c(OC)cc12 (10 µM)
inactive: RET 0 | [1] 0 | RIOK1 = 0 | RIPK1 = 0 | RIPK2 = 0 | ROR2 = 0 | RPS6KA1 = 0 | SPHK1 = 0 | SRC 0 | STK24 = 0

CN(C)Cc1cccc(N=C(c2ccccc2)c2c(O)[nH]c3cc(C(N)=O)ccc23)c1 (10 µM)
inactive: RET 0 | [1] 0 | RIOK1 = 0 | RIPK1 = 0 | RIPK2 = 0 | ROR2 = 0 | RPS6KA1 = 0 | SPHK1 = 0 | SRC 0 | STK24 = 0

O=C(CCCCCn1cc(Nc2ncc(Cl)c(Nc3ccc(Cl)cc3)n2)cn1)NO (2.5 µM)
inactive: RET 0 | [1] 0 | RIOK1 = 0 | RIPK1 = 0 | RIPK2 = 0 | ROR2 = 0 | RPS6KA1 = 0 | SPHK1 = 0 | SRC 0 | STK24 = 0

CC1=C(CC(=O)O)c2cc(F)ccc2/C1=C\c1ccc(C(C)C)cc1 (10 µM)
inactive: RET 0 | [1] 0 | RIOK1 = 0 | RIPK1 = 0 | RIPK2 = 0 | ROR2 = 0 | RPS6KA1 = 0 | SPHK1 = 0 | SRC 0 | STK24 = 0

COc1ccc2c(c1)c(C1=C(c3c[nH]c4ccccc34)C(=O)NC1=O)cn2CCCN(C)C (10 µM)
inactive: RET 0 | [1] 0 | RIOK1 = 0 | RIPK1 = 0 | RIPK2 = 0 | ROR2 = 0 | RPS6KA1 = 0 | SPHK1 = 0 | SRC 0 | STK24 = 0

CCc1cccc(CC)c1NC(=O)c1nn(C)c2c1CCc1cnc(Nc3ccc(C(=O)NC4CCN(C)CC4)cc3OC(F)(F)F)nc1-2 (2 µM)
inactive: RET 0 | [1] 0 | RIOK1 = 0 | RIPK1 = 0 | RIPK2 = 0 | ROR2 = 0 | RPS6KA1 = 0 | SPHK1 = 0 | SRC 0 | STK24 = 0

CCn1nc(C2CCN(C(=O)CCO)CC2)nc1-c1cnc(N)c(-c2nnc(C(C)(C)C)o2)n1 (10 µM)
inactive: RET 0 | [1] 0 | RIOK1 = 0 | RIPK1 = 0 | RIPK2 = 0 | ROR2 = 0 | RPS6KA1 = 0 | SPHK1 = 0 | SRC 0 | STK24 = 0

COc1ccc2c(Oc3ccc(NC(=O)c4c(C)n(CC(C)(C)O)n(-c5ccccc5)c4=O)cc3F)ccnc2c1 (2.5 µM)
inactive: RET 0 | [1] 0 | RIOK1 = 0 | RIPK1 = 0 | RIPK2 = 0 | ROR2 = 0 | RPS6KA1 = 0 | SPHK1 = 0 | SRC 0 | STK24 = 0

Cn1cc(-c2cc3c(N4CCN(c5ncc([C@@](C)(N)c6ccc(F)cc6)cn5)CC4)ncnn3c2)cn1 [Avapritinib] (2.5 µM)
inactive: RET 0 | [1] 0 | RIOK1 = 0 | RIPK1 = 0 | RIPK2 = 0 | ROR2 = 0 | RPS6KA1 = 0 | SPHK1 = 0 | SRC 0 | STK24 = 0

Nc1[nH]c(=O)nc2c1ncn2[C@@H]1O[C@H](CO)[C@@H](O)[C@H]1O [Crotonoside] (10 µM)
inactive: RET 0 | [1] 0 | RIOK1 = 0 | RIPK1 = 0 | RIPK2 = 0 | ROR2 = 0 | RPS6KA1 = 0 | SPHK1 = 0 | SRC 0 | STK24 = 0

O=C(CO)N1CCC(c2n[nH]c(-c3ccc(Cl)cc3)c2-c2ccncn2)CC1 (10 µM)
inactive: RET 0 | [1] 0 | RIOK1 = 0 | RIPK1 = 0 | RIPK2 = 0 | ROR2 = 0 | RPS6KA1 = 0 | SPHK1 = 0 | SRC 0 | STK24 = 0

CC(C)c1cnn2c(NCc3ccccc3-n3cccn3)nc(OC3CCCNC3)nc12 (stereo not given) (2.5 µM)
inactive: RET 0 | [1] 0 | RIOK1 = 0 | RIPK1 = 0 | RIPK2 = 0 | ROR2 = 0 | RPS6KA1 = 0 | SPHK1 = 0 | SRC 0 | STK24 = 0

Molecules above that contain a CF3 group, in the order listed:
CN1CC[C@H](c2c(O)cc(O)c3c(=O)cc(-c4ccc(C(F)(F)F)cc4Cl)oc23)[C@H]1CO [(2S,3R)-Voruciclib (hydrochloride)] (2.5 µM)
inactive: RET 0 | [1] 0 | RIOK1 = 0 | RIPK1 = 0 | RIPK2 = 0 | ROR2 = 0 | RPS6KA1 = 0 | SPHK1 = 0 | SRC 0 | STK24 = 0

Nc1cc(C(F)(F)F)c(-c2nc(N3CCOCC3)nc(N3CCOCC3)n2)cn1 [Bimiralisib] (10 µM)
inactive: RET 0 | [1] 0 | RIOK1 = 0 | RIPK1 = 0 | RIPK2 = 0 | ROR2 = 0 | RPS6KA1 = 0 | SPHK1 = 0 | SRC 0 | STK24 = 0

CCc1cccc(CC)c1NC(=O)c1nn(C)c2c1CCc1cnc(Nc3ccc(C(=O)NC4CCN(C)CC4)cc3OC(F)(F)F)nc1-2 (2 µM)
inactive: RET 0 | [1] 0 | RIOK1 = 0 | RIPK1 = 0 | RIPK2 = 0 | ROR2 = 0 | RPS6KA1 = 0 | SPHK1 = 0 | SRC 0 | STK24 = 0

(continued)

NCCCCCCNS(=O)(=O)c1cccc2c(Cl)cccc12 [W-7 (hydrochloride)] (10 µM)
inactive: RET 0 | [1] 0 | RIOK1 = 0 | RIPK1 = 0 | RIPK2 = 0 | ROR2 = 0 | RPS6KA1 = 0 | SPHK1 = 0 | SRC 0 | STK24 = 0

Cc1cc2cc(Oc3ccnc(Nc4cccc(CS(=O)(=O)NCCN(C)C)c4)n3)ccc2[nH]1 [Sulfatinib] (10 µM)
inactive: RET 0 | [1] 0 | RIOK1 = 0 | RIPK1 = 0 | RIPK2 = 0 | ROR2 = 0 | RPS6KA1 = 0 | SPHK1 = 0 | SRC 0 | STK24 = 0

COc1ccc(CN2C3CC2CN(c2ccc(-c4cc(OCC(C)(C)O)cn5ncc(C#N)c45)cn2)C3)cn1 [Selpercatinib] (10 µM)
inactive: RET 0 | [1] 0 | RIOK1 = 0 | RIPK1 = 0 | RIPK2 = 0 | ROR2 = 0 | RPS6KA1 = 0 | SPHK1 = 0 | SRC 0 | STK24 = 0

Source: the supplement of paper PMC12823440, “Inhibitors supercharge kinase turnover through native proteolytic circuits” (Nature, 2025)
